# Measurements reported in PubChem BioAssay AID1224830 (NIAID, 2016)
# Screen: 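Genes whose knock-down alters the TNF-alpha reporter response to LPS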 (primary screen)
# Cell system: human THP-1 monocytic leukaemia cells, TNF dual-luciferase reporter clone, PMA-differentiated to macrophage-like cells
# Reagents: siRNA pool against human genes, 50 nM
# Time to read-out: LPS for 4 h, given about 3 days after siRNA transfection
# Conditions: bacterial LPS (TLR4 ligand), 10 ng/ml
# Detection: 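TNF firefly reporter luminescence divided by renilla, normalised to the plate median, then turned into a robust z-score for each replicate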
# Reading the numbers: TNF reporter robust z-score: higher = stronger TNF reporter response to LPS
# Rule for the call: 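a well is active when its z-score exceeds 2.8 or falls below -1.5; control wells carry no call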
# In all, the deposit lists about 18,000 reagents; below is a part drawn at random. About 2,900 of them (16%) count as active. 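Calls are made per well; low scores hint the gene aids the LPS response, high scores that it dampens it.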 Repeated entries: four replicate wells of each siRNA pool. Reagent sequences are not shown.
target,TNF reporter robust z-score,Outcome
TBC1D10A,0.68,inactive
TBC1D10A,0.38,inactive
TBC1D10A,-0.01,inactive
TBC1D10A,1.69,inactive
DOCK2,-0.34,inactive
DOCK2,0.29,inactive
DOCK2,-0.53,inactive
DOCK2,0.86,inactive
MRGPRF,-0.32,inactive
MRGPRF,0.01,inactive
MRGPRF,0.69,inactive
MRGPRF,0.14,inactive
LILRB1,1.53,inactive
LILRB1,-0.73,inactive
LILRB1,0.15,inactive
LILRB1,0.14,inactive
EPYC,5.69,active
EPYC,0.56,inactive
EPYC,-0.03,inactive
EPYC,0.74,inactive
KANSL2,-0.36,inactive
KANSL2,-0.13,inactive
KANSL2,-0.47,inactive
KANSL2,-0.04,inactive
HPS3,1.15,inactive
HPS3,0.55,inactive
HPS3,-0.52,inactive
HPS3,0.83,inactive
ATP2B4,-1.95,active
ATP2B4,-0.1,inactive
ATP2B4,-0.25,inactive
ATP2B4,0.26,inactive
HSPB7,0.13,inactive
HSPB7,0.98,inactive
HSPB7,0.7,inactive
HSPB7,0.95,inactive
APLN,0.22,inactive
APLN,1.22,inactive
APLN,1.65,inactive
APLN,1.29,inactive

Entries above whose target name starts with A or a:
target,TNF reporter robust z-score,Outcome
ATP2B4,-1.95,active
ATP2B4,-0.1,inactive
ATP2B4,-0.25,inactive
ATP2B4,0.26,inactive
APLN,0.22,inactive
APLN,1.22,inactive
APLN,1.65,inactive
APLN,1.29,inactive

The results go on:
target,TNF reporter robust z-score,Outcome
BST1,-1.77,active
BST1,-1.43,inactive
BST1,-1.81,active
BST1,-0.88,inactive
FGF8,-1.44,inactive
FGF8,-1.39,inactive
FGF8,-0.64,inactive
FGF8,-0.52,inactive
EVPL,-0.68,inactive
EVPL,-0.09,inactive
EVPL,-0.7,inactive
EVPL,-0.25,inactive
RNF112,-0.74,inactive
RNF112,0.52,inactive
RNF112,-0.34,inactive
RNF112,1.3,inactive
ATG7,-0.53,inactive
ATG7,-0.76,inactive
ATG7,-0.79,inactive
ATG7,-0.39,inactive
ATG4C,0.08,inactive
ATG4C,-1.1,inactive
ATG4C,0.25,inactive
ATG4C,0.46,inactive
KRTAP13-1,-1.57,active
KRTAP13-1,-0.71,inactive
KRTAP13-1,-0.24,inactive
KRTAP13-1,-0.14,inactive
FTHL17,0.19,inactive
FTHL17,0.04,inactive
FTHL17,-0.33,inactive
FTHL17,0.81,inactive
RAD51B,0.18,inactive
RAD51B,-0.04,inactive
RAD51B,-0.27,inactive
RAD51B,0.38,inactive
GJD3,-1.53,active
GJD3,-0.81,inactive
GJD3,-1.57,active
GJD3,-0.7,inactive
DYSF,-0.86,inactive
DYSF,-0.63,inactive
DYSF,-0.93,inactive
DYSF,-0.64,inactive
ANKRD2,-0.62,inactive
ANKRD2,0.05,inactive
ANKRD2,-1,inactive
ANKRD2,-0.91,inactive
DBNDD1,-1.39,inactive
DBNDD1,-0.67,inactive
DBNDD1,-0.24,inactive
DBNDD1,0.53,inactive
GCLC,0.43,inactive
GCLC,1.19,inactive
GCLC,0.06,inactive
GCLC,1.51,inactive
SH3RF2,-0.87,inactive
SH3RF2,1.57,inactive
SH3RF2,-0.22,inactive
SH3RF2,1.55,inactive
WNT8B,-0.22,inactive
WNT8B,-0.18,inactive
WNT8B,-1.07,inactive
WNT8B,-0.72,inactive
PENK,-1.26,inactive
PENK,-1.17,inactive
PENK,-1.15,inactive
PENK,-0.47,inactive
PGAP4,-0.76,inactive
PGAP4,0.08,inactive
PGAP4,-0.6,inactive
PGAP4,0.02,inactive
